Measured values as given in publication PMC8927349.
These are yes or no findings as the source states them, for the method shown. In cells and extracts the contact can be indirect. Some entries that bind do so weakly or less than the wild type.

Molecular target: T1, NCLX, mitochondrial Na+/Ca2+ exchanger (UniProt Q6J4K2)
T1 sequence: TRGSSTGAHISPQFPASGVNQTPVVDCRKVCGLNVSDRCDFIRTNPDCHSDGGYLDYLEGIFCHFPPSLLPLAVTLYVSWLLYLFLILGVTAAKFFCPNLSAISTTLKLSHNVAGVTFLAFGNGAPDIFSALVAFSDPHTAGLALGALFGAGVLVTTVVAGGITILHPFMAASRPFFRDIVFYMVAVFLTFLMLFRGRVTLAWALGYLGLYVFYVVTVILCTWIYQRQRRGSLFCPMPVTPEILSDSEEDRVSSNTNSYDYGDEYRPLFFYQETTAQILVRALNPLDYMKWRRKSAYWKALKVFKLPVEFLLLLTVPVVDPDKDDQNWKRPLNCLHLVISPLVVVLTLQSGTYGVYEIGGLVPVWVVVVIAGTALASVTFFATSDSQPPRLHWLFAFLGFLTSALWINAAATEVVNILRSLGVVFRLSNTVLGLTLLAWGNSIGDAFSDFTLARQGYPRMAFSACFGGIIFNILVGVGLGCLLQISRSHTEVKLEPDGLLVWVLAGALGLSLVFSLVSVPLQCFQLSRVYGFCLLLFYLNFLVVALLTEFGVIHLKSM
Assay: co-IP; whole cell lysates of OEC-M1 cells transiently transfected with Lon (or Lon K529R) and/or NCLX plasmids; immunoprecipitated with anti-Lon or anti-NCLX antibody; Western blot

- binding: binds
B1: mitochondrial Lon (protein, UniProt P36776 68-959)
chain: FWEASSRGGGAFSGGEDASEGGAEEGAGGAGGSAGAGEGPVITALTPMTIPDVFPHLPLIAITRNPVFPRFIKIIEVKNKKLVELLRRKVRLAQPYVGVFLKRDDSNESDVVESLDEIYHTGTFAQIHEMQDLGDKLRMIVMGHRRVHISRQLEVEPEEPEAENKHKPRRKSKRGKKEAEDELSARHPAELAMEPTPELPAEVLMVEVENVVHEDFQVTEEVKALTAEIVKTIRDIIALNPLYRESVLQMMQAGQRVVDNPIYLSDMGAALTGAESHELQDVLEETNIPKRLYKALSLLKKEFELSKLQQRLGREVEEKIKQTHRKYLLQEQLKIIKKELGLEKDDKDAIEEKFRERLKELVVPKHVMDVVDEELSKLGLLDNHSSEFNVTRNYLDWLTSIPWGKYSNENLDLARAQAVLEEDHYGMEDVKKRILEFIAVSQLRGSTQGKILCFYGPPGVGKTSIARSIARALNREYFRFSVGGMTDVAEIKGHRRTYVGAMPGKIIQCLKKTKTENPLILIDEVDKIGRGYQGDPSSALLELLDPEQNANFLDHYLDVPVDLSKVLFICTANVTDTIPEPLRDRMEMINVSGYVAQEKLAIAERYLVPQARALCGLDESKAKLSSDVLTLLIKQYCRESGVRNLQKQVEKVLRKSAYKIVSGEAESVEVTPENLQDFVGKPVFTVERMYDVTPPGVVMGLAWTAMGGSTLFVETSLRRPQDKDAKGDKDGSLEVTGQLGEVMKESARIAYTFARAFLMQHAPANDYLVTSHIHLHVPEGATPKDGPSAGCTIVTALLSLAMGRPVRQNLAMTGEVSLTGKILPVGGIKEKTIAAKRAGVTCIVLPAENKKDFYDLAAFITEGLEVHFVEHYREIFDIAFPDEQAEALAVER
